In patent US5375693A (Sepracor, Inc., priority 1994, dated 1994):

Test: in vitro
Settings: cat, ventricular myocytes

CC(C)(C(=O)O)c1ccc(C(O)CCCN2CCC(C(O)(c3ccccc3)c3ccccc3)CC2)cc1 (racemic) [Terfenadine carboxylate, 4-[1-hydroxy-4-(4-hydroxydiphenylmethyl-1-piperidinyl)butyl]-α,α-dimethylbenzeneacetic acid]
0%: inhibition at 0.01 µM | inhibition at 0.1 µM | inhibition at 1 µM
